Measurements published in PMC7617797.
The exact form of at least one protein or probe is not confirmed. Weaker means in comparison with the reference protein, sequence or condition of that experiment. For some assays here: At least one verdict was read from the data and is not stated in words by the source.

Chains of the proteins cited; added tags and fusions are not shown. Lines headed by an entry give the natural chain unless they say otherwise; changes in a name come on top.
UniProt Q9BQ15: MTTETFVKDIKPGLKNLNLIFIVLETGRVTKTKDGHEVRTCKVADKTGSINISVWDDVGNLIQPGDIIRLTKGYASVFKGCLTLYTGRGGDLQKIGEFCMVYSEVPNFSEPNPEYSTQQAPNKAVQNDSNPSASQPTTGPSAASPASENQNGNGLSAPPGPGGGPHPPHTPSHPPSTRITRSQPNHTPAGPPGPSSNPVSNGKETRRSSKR

Columns and labels:
[1] = molecular target: hSSB1 (Homo sapiens) (UniProt Q9BQ15); experiment: competition EMSA; conditions: substrate pre-coated with RPA (10 or 30 nM); EMSA: 25 mM Tris-HCl pH 7.5, 1 mM DTT, 5 mM MgCl2, 100 mM NaCl, 20 min at 37 C; 10 nM substrate; protein 22-167 nM (RPA 5-40 nM); 7.5% native PAGE, 0.5x TBE, 4 C; recombinant protein; protein details: His6 (2BT); label: 5' Cy3; single-stranded DNA
[2] = system: RPA; experiment: EMSA; conditions: affinity similar to all substrates except bubble; EMSA: 25 mM Tris-HCl pH 7.5, 1 mM DTT, 5 mM MgCl2, 100 mM NaCl, 20 min at 37 C; 10 nM substrate; protein 22-167 nM (RPA 5-40 nM); 7.5% native PAGE, 0.5x TBE, 4 C; recombinant protein; label: 5' Cy3 on strand 1

Sequence | binding result [1] | binding result [2]
GACGCTGCCGAATTCTACCAGTGCCTTGCTAGGACATCTTTGCCCACCTGCAGGTTCACCC [61-mer ssDNA] | binds more weakly | –
GACGCTGCCGAATTCTACCAGTGCCTTGCTAGGACATCTTTGCCCACCTGCAGGTTCACCC / GGGTGAACCTGCAGGTGGGCGGCTGCTCATCGTAGGTTAGTTGGTAGAATTCGGCAGCGTC [bubble DNA] | – | binds more weakly
